According to PubChem BioAssay AID270 (DTP/NCI, 2004):
The list is a part of this screen's results and no random one: it gathers tests that were run many times, whatever their T/C, doses with no T/C, and many T/C values between a quarter and a half above the control. Further doses and runs are listed elsewhere. T/C is the treated group as % of the vehicle group. Schedules are NCI's codes, read here as Q, the interval in days (D) or hours (H), X, the number of doses. Some T/C values are followed by the survivors on the day toxicity was checked, most often the fifth; without a count, all were alive then. Some doses have a count of surviving animals in place of a T/C: the source files T/C as zero there, which appears to mark a toxic dose or a test without result, not a measured value. Some doses without a T/C left all or most animals alive at the check, yet need not have been tolerated: the source hardly ever lists a survival T/C far under the control, and the zero likely stands for such cases as well. Survivors were counted at the toxicity check, usually on the fifth day, unless a day is given; later deaths do not show. Some doses were run more than once; the values are given in rising order. Where survival is the endpoint, this PubChem deposit counts one and a half times the control or more as active, and values a quarter to a half above the control carry no call in these data; other NCI protocols may use other cut-offs.

System: BDF1 mice, s.c. Lewis lung carcinoma, T/C %
Assay: NCI In Vivo Anticancer Drug Screen. Data for tumor model Lewis Lung Carcinoma (subcutaneous) in B6D2F1 (BDF1) mice
Outline: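 Readout: survival or tumor size, expressed as treated (T) over vehicle control (C). Transplantable tumor implanted in mice; compound given to the treated group.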

[1] = T/C endpoint: median survival time, dose: 400.0 mg/kg/injection, schedule: Q01DX009 (ip), vehicle: Klucel (hydroxypropylcellulose) (HPC), higher T/C = longer survival
[2] = T/C endpoint: median survival time, dose: 50.0 mg/kg/injection, schedule: Q01DX009 (ip), vehicle: saline, higher T/C = longer survival
[3] = T/C endpoint: median survival time, dose: 200.0 mg/kg/injection, schedule: Q01DX009 (ip), vehicle: saline with Tween-80, higher T/C = longer survival
[4] = T/C endpoint: median survival time, dose: 200.0 mg/kg/injection, schedule: Q01DX009 (ip), vehicle: saline, higher T/C = longer survival

For `CCCCC(=O)OCC(=O)[C@]1(O)Cc2c(O)c3c(c(O)c2[C@@H](OC2CC(NC(=O)C(F)(F)F)C(O)C(C)O2)C1)C(=O)c1c(OC)cccc1C3=O` (stereo partly specified), the T/C (T/C endpoint: median survival time, dose: 30.0 mg/kg/injection, schedule: Q01DX009 (ip), vehicle: distilled water + Tween-80, higher T/C = longer survival) was 136 % of control, the T/C (T/C endpoint: median survival time, dose: 54.0 mg/kg/injection, schedule: Q04DX003 (ip), vehicle: distilled water + Tween-80, higher T/C = longer survival) was 126 % of control and the T/C (T/C endpoint: median survival time, dose: 80.0 mg/kg/injection, schedule: Q04DX003 (ip), vehicle: distilled water + Tween-80, higher T/C = longer survival) was 146 % of control. The survivor count (T/C endpoint: median survival time, dose: 120.0 mg/kg/injection, schedule: Q04DX003 (ip), vehicle: distilled water + Tween-80, higher T/C = longer survival) was 8 of 8.

With `Nc1nc2c(ncn2C2OC(CO)C(O)C2N)c(=O)[nH]1` (stereo unspecified) the survivor count (T/C endpoint: median survival time, dose: 6.25 mg/kg/injection, schedule: Q01DX009 (ip), vehicle: saline, higher T/C = longer survival) was 10 of 10.

For `O=NN(CCCl)C(=O)Nc1ccc2c3c(cccc13)-c1ccccc1-2`, the survivor count [1] was 9 of 10.

With `O=c1[nH]c(=O)n(C2CC(O)C(CO)O2)cc1F` (stereo unspecified) the survivor count (T/C endpoint: mean tumor weight, dose: 160.0 mg/kg/injection, schedule: Q01DX011 (ip), vehicle: other, higher T/C = larger tumour) was 2 of 10, the survivor count (T/C endpoint: mean tumor weight, dose: 180.0 mg/kg/injection, schedule: Q01DX011 (ip), vehicle: saline, higher T/C = larger tumour) was 2 of 10 and the survivor count (T/C endpoint: mean tumor weight, dose: 320.0 mg/kg/injection, schedule: Q01DX011 (ip), vehicle: saline, higher T/C = larger tumour) was 0 of 6. For the same compound, the survivor count (T/C endpoint: median survival time, dose: 25.0 mg/kg/injection, schedule: Q01DX009 (ip), vehicle: saline with Tween-80, higher T/C = longer survival) was 10 of 10, the T/C [2] was 135 % of control and the T/C (T/C endpoint: median survival time, dose: 54.0 mg/kg/injection, schedule: Q01DX011 (ip), vehicle: saline, higher T/C = longer survival) was 126 % of control [8 of 9 alive]. For the same compound, the T/C (T/C endpoint: median survival time, dose: 100.0 mg/kg/injection, schedule: Q01DX009 (ip), vehicle: saline, higher T/C = longer survival) was 136 % of control, the survivor count [3] was 10 of 10 and the T/C [4] was 133 % of control. The survivor count [4] was 10 of 10.

`S=P(N1CC1)(N1CC1)N1CC1` was tested, and the survivor count (T/C endpoint: median survival time, dose: 6.0 mg/kg/injection, schedule: Q01DX009 (ip), vehicle: Klucel (hydroxypropylcellulose) (HPC), higher T/C = longer survival) was 10 of 10, the survivor count (T/C endpoint: median survival time, dose: 8.0 mg/kg/injection, schedule: Q01DX009 (ip), vehicle: saline, higher T/C = longer survival) was 10 of 10 and the survivor count (T/C endpoint: median survival time, dose: 12.0 mg/kg/injection, schedule: Q01DX009 (ip), vehicle: Klucel (hydroxypropylcellulose) (HPC), higher T/C = longer survival) was 10 of 10. For the same compound, the survivor count (T/C endpoint: median survival time, dose: 16.0 mg/kg/injection, schedule: Q01DX009 (ip), vehicle: saline, higher T/C = longer survival) was 7 of 10, the survivor count (T/C endpoint: median survival time, dose: 16.0 mg/kg/injection, schedule: Q02DX009 (ip), vehicle: saline, higher T/C = longer survival) was 10 of 10 and the survivor count (T/C endpoint: median survival time, dose: 24.0 mg/kg/injection, schedule: Q01DX009 (ip), vehicle: Klucel (hydroxypropylcellulose) (HPC), higher T/C = longer survival) was 6 of 10. The survivor count (T/C endpoint: median survival time, dose: 32.0 mg/kg/injection, schedule: Q02DX009 (ip), vehicle: saline, higher T/C = longer survival) was 10 of 10 and the survivor count (T/C endpoint: median survival time, dose: 64.0 mg/kg/injection, schedule: Q02DX009 (ip), vehicle: saline, higher T/C = longer survival) was 0 of 10.

In the case of `NS(=O)(=O)c1ncnc2nc[nH]c12`, the survivor count (T/C endpoint: mean tumor weight, dose: 15.0 mg/kg/injection, schedule: Q01DX011 (ip), vehicle: methylcellulose (MC), higher T/C = larger tumour) is reported as 3 of 6, the survivor count (T/C endpoint: mean tumor weight, dose: 125.0 mg/kg/injection, schedule: Q01DX011 (ip), vehicle: other, higher T/C = larger tumour) is reported as 0 of 6 and the survivor count (T/C endpoint: mean tumor weight, dose: 250.0 mg/kg/injection, schedule: Q01DX011 (ip), vehicle: other, higher T/C = larger tumour) is reported as 0 of 6. For the same compound, the survivor count (T/C endpoint: mean tumor weight, dose: 500.0 mg/kg/injection, schedule: Q01DX011 (ip), vehicle: other, higher T/C = larger tumour) was 0 of 6 and the survivor count (T/C endpoint: mean tumor weight, dose: 1000.0 mg/kg/injection, schedule: Q01DX011 (ip), vehicle: other, higher T/C = larger tumour) was 0 of 6.

`O=NN(CCCl)C(=O)Nc1ccc2[nH]c3ccccc3c2c1` was tested, and the T/C (T/C endpoint: median survival time, dose: 32.5 mg/kg/injection, schedule: Q01DX009 (ip), vehicle: Klucel (hydroxypropylcellulose) (HPC), higher T/C = longer survival) was 139 % of control, the T/C (T/C endpoint: median survival time, dose: 65.0 mg/kg/injection, schedule: Q01DX009 (ip), vehicle: Klucel (hydroxypropylcellulose) (HPC), higher T/C = longer survival) was 128 % of control and the T/C (T/C endpoint: median survival time, dose: 130.0 mg/kg/injection, schedule: Q01DX009 (ip), vehicle: Klucel (hydroxypropylcellulose) (HPC), higher T/C = longer survival) was 145 % of control. The survivor count (T/C endpoint: median survival time, dose: 260.0 mg/kg/injection, schedule: Q01DX009 (ip), vehicle: Klucel (hydroxypropylcellulose) (HPC), higher T/C = longer survival) was 6 of 10.

In the case of `Cc1ccc(N=NN(C)C)cc1`, the survivor count (T/C endpoint: mean tumor weight, dose: 30.0 mg/kg/injection, schedule: Q01DX011 (ip), vehicle: other, higher T/C = larger tumour) is reported as 0 of 6 and the survivor count (T/C endpoint: mean tumor weight, dose: 120.0 mg/kg/injection, schedule: Q01DX011 (ip), vehicle: other, higher T/C = larger tumour) is reported as 0 of 6.

For `CN(C)CCOC(=O)COc1ccc(Cl)cc1`, the T/C (T/C endpoint: median survival time, dose: 300.0 mg/kg/injection, schedule: Q01DX005 (ip), vehicle: saline, higher T/C = longer survival) was 136 % of control [6 of 8 alive].

In the case of `CC(=O)[C@@]1(O)CC[C@H]2[C@@H]3C[C@H](C)C4=CC(=O)C=C[C@]4(C)[C@@]3(F)[C@@H](O)C[C@@]21C`, the survivor count (T/C endpoint: mean tumor weight, dose: 12.5 mg/kg/injection, schedule: Q01DX011 (sc), vehicle: steroid suspending solution, higher T/C = larger tumour) is reported as 3 of 6 and the survivor count (T/C endpoint: mean tumor weight, dose: 100.0 mg/kg/injection, schedule: Q01DX011 (sc), vehicle: steroid suspending solution, higher T/C = larger tumour) is reported as 2 of 6.

In the case of `CCn1c2ccccc2c2cc(NC(=O)N(CCCl)N=O)ccc21`, the survivor count (T/C endpoint: median survival time, dose: 200.0 mg/kg/injection, schedule: Q01DX001 (ip), vehicle: saline with Tween-80, higher T/C = longer survival) is reported as 10 of 10 and the survivor count (T/C endpoint: median survival time, dose: 400.0 mg/kg/injection, schedule: Q01DX001 (ip), vehicle: saline with Tween-80, higher T/C = longer survival) is reported as 10 of 10.

With `CC/C(=C(/CC)c1ccc(O)cc1)c1ccc(O)cc1` the survivor count [1] was 8 of 10.

With `CCc1c(CC(=O)O)c2cc(C)ccc2n1Cc1ccc(Cl)cc1` the survivor count (T/C endpoint: mean tumor weight, dose: 100.0 mg/kg/injection, schedule: Q01DX011 (ip), vehicle: saline, higher T/C = larger tumour) was 1 of 6.

With `[O-][n+]1c(CCl)nc2cccc3c2c1-c1ccccc1-3` the survivor count [3] was 9 of 10 and 10 of 10.

`Fc1ccc(CSc2ncnc3c2ncn3C2CCCCO2)cc1` (stereo unspecified) was tested, and the survivor count (T/C endpoint: mean tumor weight, dose: 600.0 mg/kg/injection, schedule: Q01DX011 (ip), vehicle: other, higher T/C = larger tumour) was 0 of 6.

With `O=C(O)C1(NO)CCCC1` the survivor count (T/C endpoint: mean tumor weight, dose: 188.0 mg/kg/injection, schedule: Q01DX011 (ip), vehicle: saline, higher T/C = larger tumour) was 1 of 6.

`O=c1[nH]c2cc(Cl)c(Cl)cc2o1` was tested, and the survivor count (T/C endpoint: mean tumor weight, dose: 170.0 mg/kg/injection, schedule: Q01DX011 (ip), vehicle: carboxymethylcellulose (CMC), higher T/C = larger tumour) was 2 of 6 and the survivor count (T/C endpoint: mean tumor weight, dose: 255.0 mg/kg/injection, schedule: Q01DX011 (ip), vehicle: carboxymethylcellulose (CMC), higher T/C = larger tumour) was 0 of 6.

For `N=C(N)c1ccc(OCCCOc2ccc(C(=N)N)cc2Br)c(Br)c1`, the T/C (T/C endpoint: median survival time, dose: 12.5 mg/kg/injection, schedule: Q01DX009 (ip), vehicle: saline, higher T/C = longer survival) was 125 % of control, the survivor count (T/C endpoint: median survival time, dose: 25.0 mg/kg/injection, schedule: Q01DX009 (ip), vehicle: saline, higher T/C = longer survival) was 10 of 10 and the survivor count [2] was 3 of 10.

With `COc1ccc(-c2c(CC(=O)O)c3cc(OC)ccc3n2Cc2ccc(Cl)cc2)cc1` the T/C (T/C endpoint: mean tumor weight, dose: 150.0 mg/kg/injection, schedule: Q01DX011 (ip), vehicle: other, evaluated on day 12, higher T/C = larger tumour) was 130 % of control and the T/C (T/C endpoint: mean tumor weight, dose: 500.0 mg/kg/injection, schedule: Q01DX011 (ip), vehicle: other, evaluated on day 12, higher T/C = larger tumour) was 140 % of control.

With `C=C1C(=O)OC2C1CCC(C)C1CCC(=O)OC12C` (stereo unspecified) the survivor count (T/C endpoint: median survival time, dose: 6.25 mg/kg/injection, schedule: Q01DX009 (ip), vehicle: Klucel (hydroxypropylcellulose) (HPC), higher T/C = longer survival) was 10 of 10 and the survivor count (T/C endpoint: median survival time, dose: 12.5 mg/kg/injection, schedule: Q01DX009 (ip), vehicle: Klucel (hydroxypropylcellulose) (HPC), higher T/C = longer survival) was 10 of 10.

With `O=C(O)O.[Cd]` the T/C (T/C endpoint: mean tumor weight, dose: 1.0 mg/kg/injection, schedule: Q01DX011 (ip), vehicle: carboxymethylcellulose (CMC), evaluated on day 12, higher T/C = larger tumour) was 127 % of control [5 of 6 alive], the survivor count (T/C endpoint: mean tumor weight, dose: 2.0 mg/kg/injection, schedule: Q01DX011 (ip), vehicle: carboxymethylcellulose (CMC), higher T/C = larger tumour) was 3 of 6 and the survivor count (T/C endpoint: mean tumor weight, dose: 5.0 mg/kg/injection, schedule: Q01DX011 (ip), vehicle: carboxymethylcellulose (CMC), higher T/C = larger tumour) was 2 of 6. The survivor count (T/C endpoint: mean tumor weight, dose: 10.0 mg/kg/injection, schedule: Q01DX011 (ip), vehicle: carboxymethylcellulose (CMC), higher T/C = larger tumour) was 1 of 6 and the survivor count (T/C endpoint: mean tumor weight, dose: 25.0 mg/kg/injection, schedule: Q01DX011 (ip), vehicle: carboxymethylcellulose (CMC), higher T/C = larger tumour) was 1 of 6.

For `COc1cc2c(c(OC)c1OC)-c1ccc(OC)c(=O)cc1[C@@H](NC(=O)CF)CC2`, the survivor count (T/C endpoint: median survival time, dose: 0.37 mg/kg/injection, schedule: Q01DX009 (ip), vehicle: saline with Tween-80, higher T/C = longer survival) was 10 of 10 and the survivor count (T/C endpoint: median survival time, dose: 0.75 mg/kg/injection, schedule: Q01DX009 (ip), vehicle: saline with Tween-80, higher T/C = longer survival) was 3 of 10.
